Results taken from paper PMC6891762, “Novel Isoxazolidine and γ-Lactam Analogues of Homonucleosides” (Molecules, 2019).

System: Capan-1 (pancreatic adenocarcinoma) cells
Assay: Cytostatic activity, Capan-1
Assay type: cell-based
Settings: concentration causing 50% decrease in cell proliferation
Protocol: The 50% cytostatic inhibitory concentration (IC50) causing a 50% decrease in cell proliferation was determined for all isolated isoxazolidines 14 and γ-lactams 15 toward nine cancerous cell lines (Capan-1 (pancreatic adenocarcinoma), Hap1 (chronic myeloid leukemia), HCT-116 (colorectal carcinoma), NCI-H460 (lung carcinoma), DND-41 (acute lymphoblastic leukemia), HL-60 (acute myeloid leukemia), K-562 (chronic myeloid leukemia), MM.1S (multiple myeloma) and Z-138 (non-Hodgkin lymphoma)) and normal retina (non-cancerous) cells (hTERT RPE-1). Docetaxel, etoposide and stauroporine were used as the reference compounds.
All assays were performed in 96-well microtiter plates. To each well was added (5−7.5) × 10^4 tumor cells and a given amount of the test compound. The cells were allowed to proliferate at 37 °C in a humidified, CO2-controlled atmosphere. At the end of the incubation period, the cells were counted in a Coulter counter. The IC50 (50% inhibitory concentration) was defined as the concentration of the compound that inhibited cell proliferation by 50%.

`CN[C@@H]1C[C@H]2O[C@@](C)([C@@H]1OC)n1c3ccccc3c3c4c(c5c6ccccc6n2c5c31)C(=O)NC4` [Stauroporine, reference compound] was tested, and the IC50 was 0.66 µM.
